In the assay the target is T1, ASC (Apoptosis-associated Speck-like protein containing a Caspase Activating Recruitment Domain), mouse, endogenous in brain cortical lysate (mouse) (UniProt Q9EPB4).
T1 sequence (looked up): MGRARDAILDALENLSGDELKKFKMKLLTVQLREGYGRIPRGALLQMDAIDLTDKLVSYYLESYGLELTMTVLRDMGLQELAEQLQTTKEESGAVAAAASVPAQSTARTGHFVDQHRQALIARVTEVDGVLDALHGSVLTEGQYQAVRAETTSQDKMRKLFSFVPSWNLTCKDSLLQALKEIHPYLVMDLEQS
As to the kind of experiment: co-immunoprecipitation from mouse cortical lysate with IC-100 on Protein G MicroBeads, immunoblot. In general terms: Immunoblotting shows a protein as a band on a membrane.

No constants are given. Whether binding was seen depends on the method and setting. Binding seen in cells or lysates may run through a third protein. Some results given as binding are weak or reduced against the parent protein; the word gives no strength.

B1: IC-100 (humanized anti-ASC monoclonal antibody) (antibody, V domains shown)
VH: QVTLKESGPALVKPTQTLTLTCSFSGFSLSTSGMGVSWIRQPAGKGLEWLAHIYWDDDKRYNPSLKSRLTISKDSSKNQVVLTMTNMDPVDTATYSCARSTPIVANAMDYWGQGTLVTVSS
VL: DIVMTQSPDSLAVSLGERATINCKASQSVDYDGDSYMNWYQQKPGQPPKLLIYAASNLESGIPARFSGSGSGTDFTLTISSLQPEDVATYYCQQSNEDPYTFGQGTKLEIK
As to B1, the binding entry is reported as “binds”.

The record behind these values is patent publication US20230296626A1.
